{"sequences": {"note": "Sequences of proteins named here, by UniProt entry; tags and fusion partners are left off. A change or cut given only in a name is not applied to a line headed by its entry.", "UniProt P11166": "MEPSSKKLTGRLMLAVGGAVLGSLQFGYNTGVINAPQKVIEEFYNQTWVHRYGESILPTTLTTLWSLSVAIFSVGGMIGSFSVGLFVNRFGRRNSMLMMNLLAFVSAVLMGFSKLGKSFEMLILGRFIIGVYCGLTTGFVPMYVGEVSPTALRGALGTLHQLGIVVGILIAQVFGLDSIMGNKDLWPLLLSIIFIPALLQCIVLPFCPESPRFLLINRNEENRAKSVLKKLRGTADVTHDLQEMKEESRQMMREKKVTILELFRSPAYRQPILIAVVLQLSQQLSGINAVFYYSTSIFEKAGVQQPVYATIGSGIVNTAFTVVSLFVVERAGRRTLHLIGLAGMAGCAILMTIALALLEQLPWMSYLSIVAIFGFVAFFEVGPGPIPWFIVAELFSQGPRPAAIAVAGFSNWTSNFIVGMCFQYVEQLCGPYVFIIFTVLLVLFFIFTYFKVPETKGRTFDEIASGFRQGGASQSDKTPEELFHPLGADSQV", "UniProt Q8IWA5": "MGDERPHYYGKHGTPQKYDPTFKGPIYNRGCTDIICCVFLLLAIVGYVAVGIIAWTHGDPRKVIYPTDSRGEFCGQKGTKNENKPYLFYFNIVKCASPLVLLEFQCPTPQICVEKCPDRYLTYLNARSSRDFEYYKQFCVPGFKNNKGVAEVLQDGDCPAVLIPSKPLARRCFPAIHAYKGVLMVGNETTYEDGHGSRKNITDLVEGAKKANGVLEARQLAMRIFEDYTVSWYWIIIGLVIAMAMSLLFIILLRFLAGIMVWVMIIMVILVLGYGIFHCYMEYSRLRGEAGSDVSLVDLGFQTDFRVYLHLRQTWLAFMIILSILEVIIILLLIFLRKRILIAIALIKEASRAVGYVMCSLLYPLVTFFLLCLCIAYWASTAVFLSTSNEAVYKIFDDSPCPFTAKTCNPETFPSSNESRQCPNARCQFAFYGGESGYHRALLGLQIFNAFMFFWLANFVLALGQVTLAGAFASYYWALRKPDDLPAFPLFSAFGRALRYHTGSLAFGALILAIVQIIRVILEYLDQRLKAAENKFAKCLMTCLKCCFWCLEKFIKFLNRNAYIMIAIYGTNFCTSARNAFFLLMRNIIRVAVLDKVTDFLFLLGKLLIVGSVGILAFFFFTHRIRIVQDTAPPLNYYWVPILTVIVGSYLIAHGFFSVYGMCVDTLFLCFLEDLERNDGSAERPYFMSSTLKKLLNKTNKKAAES", "UniProt O00400": "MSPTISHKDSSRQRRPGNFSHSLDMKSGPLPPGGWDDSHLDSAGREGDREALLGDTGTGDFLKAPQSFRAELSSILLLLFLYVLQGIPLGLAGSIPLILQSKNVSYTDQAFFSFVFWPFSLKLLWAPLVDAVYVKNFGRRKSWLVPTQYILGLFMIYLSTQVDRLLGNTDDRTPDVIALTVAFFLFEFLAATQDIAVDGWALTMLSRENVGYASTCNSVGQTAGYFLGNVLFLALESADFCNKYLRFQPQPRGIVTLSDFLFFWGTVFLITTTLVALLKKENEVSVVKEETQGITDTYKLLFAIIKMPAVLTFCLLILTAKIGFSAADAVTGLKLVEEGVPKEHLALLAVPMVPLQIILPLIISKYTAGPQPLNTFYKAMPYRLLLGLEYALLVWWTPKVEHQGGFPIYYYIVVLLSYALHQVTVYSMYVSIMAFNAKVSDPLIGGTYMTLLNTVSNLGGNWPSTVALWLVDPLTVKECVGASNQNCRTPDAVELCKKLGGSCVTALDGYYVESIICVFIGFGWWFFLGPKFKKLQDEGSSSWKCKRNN", "UniProt Q00325": "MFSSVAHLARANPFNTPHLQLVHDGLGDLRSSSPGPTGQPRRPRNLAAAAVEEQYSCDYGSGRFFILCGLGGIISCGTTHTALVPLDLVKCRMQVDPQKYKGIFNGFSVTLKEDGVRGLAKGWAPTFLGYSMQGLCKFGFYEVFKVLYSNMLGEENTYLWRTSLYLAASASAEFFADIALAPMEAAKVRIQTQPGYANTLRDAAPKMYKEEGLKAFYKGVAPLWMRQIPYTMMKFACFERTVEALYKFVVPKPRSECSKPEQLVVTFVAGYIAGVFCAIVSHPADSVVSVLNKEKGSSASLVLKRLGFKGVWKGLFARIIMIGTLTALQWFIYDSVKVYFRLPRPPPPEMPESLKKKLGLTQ", "UniProt P12235": "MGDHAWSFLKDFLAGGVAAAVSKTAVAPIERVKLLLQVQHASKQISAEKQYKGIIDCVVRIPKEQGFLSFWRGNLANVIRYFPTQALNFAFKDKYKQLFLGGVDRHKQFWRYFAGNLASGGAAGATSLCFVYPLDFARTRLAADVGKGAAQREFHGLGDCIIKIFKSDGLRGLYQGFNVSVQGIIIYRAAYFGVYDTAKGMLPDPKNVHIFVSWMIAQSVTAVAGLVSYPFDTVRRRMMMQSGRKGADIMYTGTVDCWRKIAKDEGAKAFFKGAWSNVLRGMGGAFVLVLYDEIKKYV", "UniProt Q9Y6M7": "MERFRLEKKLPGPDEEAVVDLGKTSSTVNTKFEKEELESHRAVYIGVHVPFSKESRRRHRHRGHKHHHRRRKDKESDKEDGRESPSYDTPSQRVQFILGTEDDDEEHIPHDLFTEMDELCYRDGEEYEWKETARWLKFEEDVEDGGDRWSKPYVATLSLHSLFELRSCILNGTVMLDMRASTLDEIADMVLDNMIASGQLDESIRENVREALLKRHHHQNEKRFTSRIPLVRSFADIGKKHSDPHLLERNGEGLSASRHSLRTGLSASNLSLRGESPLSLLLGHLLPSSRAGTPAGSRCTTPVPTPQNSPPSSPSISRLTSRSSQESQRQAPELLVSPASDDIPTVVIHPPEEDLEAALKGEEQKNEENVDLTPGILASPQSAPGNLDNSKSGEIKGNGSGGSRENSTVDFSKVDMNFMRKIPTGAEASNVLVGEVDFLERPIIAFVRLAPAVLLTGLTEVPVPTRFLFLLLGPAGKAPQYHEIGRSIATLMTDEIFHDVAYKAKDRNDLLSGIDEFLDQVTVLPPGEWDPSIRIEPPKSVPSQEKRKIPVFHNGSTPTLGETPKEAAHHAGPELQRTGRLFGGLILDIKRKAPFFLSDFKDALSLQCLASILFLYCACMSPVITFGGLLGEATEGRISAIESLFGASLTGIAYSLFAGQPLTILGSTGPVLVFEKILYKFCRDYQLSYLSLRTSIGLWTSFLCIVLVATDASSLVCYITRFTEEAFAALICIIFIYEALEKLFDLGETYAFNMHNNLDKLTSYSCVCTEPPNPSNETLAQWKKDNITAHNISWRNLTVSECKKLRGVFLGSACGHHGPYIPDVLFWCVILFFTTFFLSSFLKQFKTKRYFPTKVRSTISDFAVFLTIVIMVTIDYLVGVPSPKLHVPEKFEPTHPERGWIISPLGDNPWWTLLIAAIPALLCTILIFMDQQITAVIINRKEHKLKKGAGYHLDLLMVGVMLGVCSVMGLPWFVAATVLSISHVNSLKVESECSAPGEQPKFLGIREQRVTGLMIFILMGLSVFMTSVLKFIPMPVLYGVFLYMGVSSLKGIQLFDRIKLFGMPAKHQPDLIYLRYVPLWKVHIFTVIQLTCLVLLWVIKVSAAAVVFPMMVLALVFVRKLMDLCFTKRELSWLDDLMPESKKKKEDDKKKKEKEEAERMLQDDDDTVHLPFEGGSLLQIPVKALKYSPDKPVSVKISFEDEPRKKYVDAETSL", "UniProt L0R6Q1": "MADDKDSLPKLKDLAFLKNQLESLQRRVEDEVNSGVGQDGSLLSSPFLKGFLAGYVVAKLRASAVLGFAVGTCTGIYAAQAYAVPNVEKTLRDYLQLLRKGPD", "UniProt Q13485": "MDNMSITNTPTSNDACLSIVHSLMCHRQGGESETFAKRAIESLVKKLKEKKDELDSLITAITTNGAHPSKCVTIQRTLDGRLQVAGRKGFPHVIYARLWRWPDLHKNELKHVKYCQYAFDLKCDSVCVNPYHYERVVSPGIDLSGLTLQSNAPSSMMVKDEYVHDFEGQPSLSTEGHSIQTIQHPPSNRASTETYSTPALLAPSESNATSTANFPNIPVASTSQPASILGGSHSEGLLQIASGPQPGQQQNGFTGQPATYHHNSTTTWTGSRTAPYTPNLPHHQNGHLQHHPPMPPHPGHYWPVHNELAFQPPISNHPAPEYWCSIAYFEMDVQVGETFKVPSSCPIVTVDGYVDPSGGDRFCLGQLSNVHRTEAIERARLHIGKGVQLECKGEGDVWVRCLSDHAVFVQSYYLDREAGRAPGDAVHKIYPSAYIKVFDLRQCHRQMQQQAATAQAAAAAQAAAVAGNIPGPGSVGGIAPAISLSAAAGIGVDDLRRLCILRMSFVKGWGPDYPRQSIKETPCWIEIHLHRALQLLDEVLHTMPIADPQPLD", "UniProt P48029": "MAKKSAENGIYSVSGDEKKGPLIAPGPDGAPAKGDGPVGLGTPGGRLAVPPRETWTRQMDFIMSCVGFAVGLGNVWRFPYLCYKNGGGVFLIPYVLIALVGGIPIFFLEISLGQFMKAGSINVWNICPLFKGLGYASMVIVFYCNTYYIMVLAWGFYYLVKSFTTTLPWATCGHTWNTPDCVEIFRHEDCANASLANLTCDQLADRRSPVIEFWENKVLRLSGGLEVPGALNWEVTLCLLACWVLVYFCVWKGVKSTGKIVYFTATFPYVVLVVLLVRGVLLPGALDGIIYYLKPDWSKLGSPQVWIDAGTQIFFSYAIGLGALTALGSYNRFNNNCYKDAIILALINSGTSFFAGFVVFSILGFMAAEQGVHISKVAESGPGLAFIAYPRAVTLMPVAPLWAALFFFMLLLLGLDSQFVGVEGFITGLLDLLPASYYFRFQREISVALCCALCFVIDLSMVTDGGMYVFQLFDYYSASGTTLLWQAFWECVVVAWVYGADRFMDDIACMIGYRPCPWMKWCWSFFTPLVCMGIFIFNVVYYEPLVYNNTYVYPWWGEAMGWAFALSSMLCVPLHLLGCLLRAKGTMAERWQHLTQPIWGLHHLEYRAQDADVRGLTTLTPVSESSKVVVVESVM", "UniProt P04920": "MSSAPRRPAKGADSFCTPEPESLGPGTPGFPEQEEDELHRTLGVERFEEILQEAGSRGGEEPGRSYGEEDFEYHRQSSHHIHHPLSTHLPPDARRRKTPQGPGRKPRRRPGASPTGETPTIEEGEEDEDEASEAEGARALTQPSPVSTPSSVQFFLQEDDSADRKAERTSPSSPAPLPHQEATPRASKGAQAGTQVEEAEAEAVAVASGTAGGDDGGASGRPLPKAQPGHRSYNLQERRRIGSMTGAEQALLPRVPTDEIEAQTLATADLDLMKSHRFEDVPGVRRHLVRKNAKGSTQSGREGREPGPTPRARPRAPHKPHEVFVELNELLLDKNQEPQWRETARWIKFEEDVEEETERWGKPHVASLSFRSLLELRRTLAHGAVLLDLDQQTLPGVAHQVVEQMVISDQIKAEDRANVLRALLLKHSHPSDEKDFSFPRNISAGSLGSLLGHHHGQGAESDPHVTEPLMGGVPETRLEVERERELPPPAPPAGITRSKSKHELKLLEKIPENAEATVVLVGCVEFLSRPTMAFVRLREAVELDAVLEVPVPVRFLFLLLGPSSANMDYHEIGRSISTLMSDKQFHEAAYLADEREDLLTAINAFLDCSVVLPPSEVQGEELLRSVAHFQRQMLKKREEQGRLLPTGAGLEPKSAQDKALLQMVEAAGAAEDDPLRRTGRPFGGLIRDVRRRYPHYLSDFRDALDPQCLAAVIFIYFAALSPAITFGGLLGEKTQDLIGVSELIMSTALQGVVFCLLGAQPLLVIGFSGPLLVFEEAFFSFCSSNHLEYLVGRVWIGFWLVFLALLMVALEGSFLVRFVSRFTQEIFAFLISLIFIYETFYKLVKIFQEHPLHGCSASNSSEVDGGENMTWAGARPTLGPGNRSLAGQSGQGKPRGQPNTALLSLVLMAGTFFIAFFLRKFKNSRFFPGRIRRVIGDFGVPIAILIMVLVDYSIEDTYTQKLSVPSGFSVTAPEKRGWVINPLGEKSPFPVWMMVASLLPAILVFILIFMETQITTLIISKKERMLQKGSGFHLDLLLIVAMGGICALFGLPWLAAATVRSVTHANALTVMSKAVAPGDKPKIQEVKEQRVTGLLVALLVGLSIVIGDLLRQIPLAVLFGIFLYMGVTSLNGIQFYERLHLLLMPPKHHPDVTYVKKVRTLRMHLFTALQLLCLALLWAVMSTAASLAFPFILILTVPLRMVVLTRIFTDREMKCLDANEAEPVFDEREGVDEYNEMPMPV", "UniProt P05141": "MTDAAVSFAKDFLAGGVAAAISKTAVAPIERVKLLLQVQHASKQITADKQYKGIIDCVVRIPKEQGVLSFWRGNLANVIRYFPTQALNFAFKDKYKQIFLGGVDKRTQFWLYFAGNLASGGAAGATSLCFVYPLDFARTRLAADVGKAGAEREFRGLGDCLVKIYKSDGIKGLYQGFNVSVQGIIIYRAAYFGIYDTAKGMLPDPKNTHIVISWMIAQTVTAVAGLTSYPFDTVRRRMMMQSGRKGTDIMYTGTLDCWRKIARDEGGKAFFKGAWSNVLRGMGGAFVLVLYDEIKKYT"}, "source": "the supplement of paper PMC10849652", "note": "The other results are listed elsewhere or left out."}
{"compound": "Cc1ccc(-n2nc(C(C)(C)C)cc2NC(=O)Nc2ccc(OCCN3CCOCC3)c3ccccc23)cc1 [doramapimod]", "assay": "log2 fold change, soluble protein after heating vs DMSO (PISA); higher = thermal stabilisation; K562 lysate, 10 uM; active = over 0.2 and 3.5 SD of the protein, either way, in both replicates (recomputed)", "procedure,_shortened": "(§1)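 Log-two fold change in thermal stability relative to solvent controls is reported from duplicates. For each sample, crude K562 extract from dounce-homogenised pellets in PBS pH 7.4 with 1 mM MgCl2, at 1 mg/mL protein, was treated with 10 μM compound for 30 min. Aliquots heated for 3 min across 48°C-58°C were pooled, brought to 0.5% NP-40 at 4°C and cleared at 21,000xg for 90 min. The supernatant was quantified by TMTpro 16plex LC-MS/MS with channel sums equalised.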"}
{"target": "SLIRP (UniProt Q9GZT3)", "log2 fold change": "inactive: 0.012"}
{"target": "SLC25A13 isoform 2 (UniProt Q9UJS0)", "log2 fold change": "inactive: -0.018"}
{"target": "SLC2A1 (UniProt P11166)", "log2 fold change": "inactive: -0.039"}
{"target": "SLC25A22 (UniProt Q9H936)", "log2 fold change": "inactive: 0.011"}
{"target": "SLC44A2 (UniProt Q8IWA5)", "log2 fold change": "inactive: 0.009"}
{"target": "SLC33A1 (UniProt O00400)", "log2 fold change": "inactive: -0.017"}
{"target": "SLC25A3 isoform 2 (UniProt Q00325)", "log2 fold change": "inactive: -0.005"}
{"target": "SLC38A9 (UniProt Q8NBW4)", "log2 fold change": "inactive: -0.04"}
{"target": "SLC6A6 (UniProt P31641)", "log2 fold change": "inactive: -0.075"}
{"target": "SLC30A7 (UniProt Q8NEW0)", "log2 fold change": "inactive: -0.026"}
{"target": "SLC7A5 (UniProt Q01650)", "log2 fold change": "inactive: 0.019"}
{"target": "SLC38A7 (UniProt Q9NVC3)", "log2 fold change": "inactive: -0.305"}
{"target": "SLC43A3 isoform 2 (UniProt Q8NBI5)", "log2 fold change": "inactive: 0.001"}
{"target": "SLC4A1AP (UniProt Q9BWU0)", "log2 fold change": "inactive: 0.014"}
{"target": "SLC27A2 (UniProt O14975)", "log2 fold change": "inactive: 0.064"}
{"target": "SLC36A4 (UniProt Q6YBV0)", "log2 fold change": "inactive: -0.021"}
{"target": "SLC26A6 (UniProt Q9BXS9)", "log2 fold change": "inactive: -0.003"}
{"target": "SLC25A21 (UniProt Q9BQT8)", "log2 fold change": "inactive: -0.023"}
{"target": "SLC25A4 (UniProt P12235)", "log2 fold change": "inactive: 0.023"}
{"target": "SLC38A10 (UniProt Q9HBR0)", "log2 fold change": "inactive: -0.087"}
{"target": "SLC25A42 (UniProt Q86VD7)", "log2 fold change": "inactive: -0.009"}
{"target": "SMAP (UniProt O00193)", "log2 fold change": "inactive: -0.087"}
{"target": "SLC3A2 isoform 3 (UniProt P08195)", "log2 fold change": "inactive: -0.011"}
{"target": "SLC25A25 isoform 3 (UniProt Q6KCM7)", "log2 fold change": "inactive: 0.015"}
{"target": "SLC9A1 (UniProt P19634)", "log2 fold change": "inactive: -0.001"}
{"target": "SLC4A7 isoform 7 (UniProt Q9Y6M7)", "log2 fold change": "inactive: -0.041"}
{"target": "SLC35A4 (UniProt L0R6Q1)", "log2 fold change": "inactive: 0.05"}
{"target": "SLC9A3R2 (UniProt Q15599)", "log2 fold change": "inactive: 0.044"}
{"target": "SMAD4 (UniProt Q13485)", "log2 fold change": "inactive: -0.032"}
{"target": "SLC6A8 isoform 2 (UniProt P48029)", "log2 fold change": "inactive: 0.134"}
{"target": "SLC4A2 (UniProt P04920)", "log2 fold change": "inactive: 0.056"}
{"target": "SLC30A1 (UniProt Q9Y6M5)", "log2 fold change": "inactive: -0.005"}
{"target": "SLC25A31 (UniProt Q9H0C2)", "log2 fold change": "inactive: -0.006"}
{"target": "SMAP2 (UniProt Q8WU79)", "log2 fold change": "inactive: -0.019"}
{"target": "SLC6A8 (UniProt P48029)", "log2 fold change": "inactive: -0.001"}
{"target": "SLC25A5 (UniProt P05141)", "log2 fold change": "inactive: -0.077"}
{"target": "SLC25A1 (UniProt P53007)", "log2 fold change": "inactive: 0.013"}
{"target": "SMAP1 isoform 2 (UniProt Q8IYB5)", "log2 fold change": "inactive: 0.066"}
{"compound": "Cc1ccc(NC(=O)c2ccc(CN3CC[C@H](N(C)C)C3)c(C(F)(F)F)c2)cc1Nc1nccc(-c2cncnc2)n1 [bafetinib]", "assay": "log2 fold change, soluble protein after heating vs DMSO (PISA); higher = thermal stabilisation; K562 lysate, 10 uM; active = over 0.2 and 3.5 SD of the protein, either way, in both replicates (recomputed)", "procedure,_shortened": "as §1"}
{"target": "SLIRP (UniProt Q9GZT3)", "log2 fold change": "inactive: 0.025"}
{"target": "SLC25A13 isoform 2 (UniProt Q9UJS0)", "log2 fold change": "inactive: 0.005"}
{"target": "SLC2A1 (UniProt P11166)", "log2 fold change": "inactive: 0.014"}
{"target": "SLC25A22 (UniProt Q9H936)", "log2 fold change": "inactive: -0.015"}
{"target": "SLC44A2 (UniProt Q8IWA5)", "log2 fold change": "inactive: -0.057"}
{"target": "SLC33A1 (UniProt O00400)", "log2 fold change": "inactive: -0.009"}
{"target": "SLC25A3 isoform 2 (UniProt Q00325)", "log2 fold change": "inactive: -0.013"}
{"target": "SLC38A9 (UniProt Q8NBW4)", "log2 fold change": "inactive: -0.013"}
{"target": "SLC6A6 (UniProt P31641)", "log2 fold change": "inactive: -0.023"}
{"target": "SLC30A7 (UniProt Q8NEW0)", "log2 fold change": "inactive: -0.109"}
{"target": "SLC7A5 (UniProt Q01650)", "log2 fold change": "inactive: 0.046"}
{"target": "SLC38A7 (UniProt Q9NVC3)", "log2 fold change": "inactive: -0.058"}
{"target": "SLC43A3 isoform 2 (UniProt Q8NBI5)", "log2 fold change": "inactive: 0.037"}
{"target": "SLC4A1AP (UniProt Q9BWU0)", "log2 fold change": "inactive: -0.009"}
{"target": "SLC27A2 (UniProt O14975)", "log2 fold change": "inactive: 0.015"}
{"target": "SLC36A4 (UniProt Q6YBV0)", "log2 fold change": "inactive: -0.005"}
{"target": "SLC26A6 (UniProt Q9BXS9)", "log2 fold change": "inactive: -0.003"}
{"target": "SLC25A21 (UniProt Q9BQT8)", "log2 fold change": "inactive: -0.011"}
{"target": "SLC25A4 (UniProt P12235)", "log2 fold change": "inactive: 0.026"}
{"target": "SLC38A10 (UniProt Q9HBR0)", "log2 fold change": "inactive: -0.044"}
{"target": "SLC25A42 (UniProt Q86VD7)", "log2 fold change": "inactive: -0.019"}
{"target": "SMAP (UniProt O00193)", "log2 fold change": "inactive: 0.013"}
{"target": "SLC3A2 isoform 3 (UniProt P08195)", "log2 fold change": "inactive: 0.011"}
{"target": "SLC25A25 isoform 3 (UniProt Q6KCM7)", "log2 fold change": "inactive: 0.013"}
{"target": "SLC9A1 (UniProt P19634)", "log2 fold change": "inactive: -0.054"}
{"target": "SLC4A7 isoform 7 (UniProt Q9Y6M7)", "log2 fold change": "inactive: -0.042"}
{"target": "SLC35A4 (UniProt L0R6Q1)", "log2 fold change": "inactive: 0.035"}
{"target": "SLC9A3R2 (UniProt Q15599)", "log2 fold change": "inactive: -0.004"}
{"target": "SMAD4 (UniProt Q13485)", "log2 fold change": "inactive: 0.031"}
{"target": "SLC6A8 isoform 2 (UniProt P48029)", "log2 fold change": "inactive: -0.058"}
{"target": "SLC4A2 (UniProt P04920)", "log2 fold change": "inactive: -0.028"}
{"target": "SLC30A1 (UniProt Q9Y6M5)", "log2 fold change": "inactive: -0.007"}
{"target": "SLC25A31 (UniProt Q9H0C2)", "log2 fold change": "inactive: -0.067"}
{"target": "SMAP2 (UniProt Q8WU79)", "log2 fold change": "inactive: 0.051"}
{"target": "SLC6A8 (UniProt P48029)", "log2 fold change": "inactive: -0.035"}
{"target": "SLC25A5 (UniProt P05141)", "log2 fold change": "inactive: 0.066"}
{"target": "SLC25A1 (UniProt P53007)", "log2 fold change": "inactive: -0.023"}
{"target": "SMAP1 isoform 2 (UniProt Q8IYB5)", "log2 fold change": "inactive: 0.032"}
